In PubChem BioAssay AID493014 (National Center for Advancing Translational Sciences (NCATS), 2011):
This is one part of the list. Further columns of the screen follow, without active or inactive calls. Most of these compounds were active or inconclusive in the main read-out, so they are no random draw. Potencies come from curve fits of mixed quality, noted in brackets.

Experiment: qHTS Assay to Find Inhibitors of Chronic Active B-Cell Receptor Signaling
Conditions: ABC-DLBCL IkBa-CBG/CBR reporter, luminescence ratio (green luciferase fused to IkBa over red control in TMD8 lymphoma cells), 4 h
In short: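 Cell line TMD8 (human ABC DLBCL), stably expressing tet-inducible CBG68-IkBa fusion and CBR; IMDM/0.5% FBS; cpd up to 46 uM; dox induction, 4 h, 37C/5% CO2; dual luminescence; green/red ratio; MG132 control.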

[1] = measured here: CBR red luminescence, cell number
[2] = measured here: IkBa-CBG green luminescence

Structure (SMILES) | AC50 [1] | AC50 [2]
Cc1cc2oc(=O)cc(CN3CCOCC3)c2cc1C(C)C | 20 µM [rising, single point] | 
Cc1cccc(NC(=O)Cn2c(=O)n(Cc3ccco3)c(=N)c3c4c(sc32)COC(C)(C)C4)c1 | 14.1 µM [falling, single point] | 
Cc1cnc(NC(=O)Cc2ccccc2F)s1 | 14.1 µM [falling, partial curve, poor fit] | 
S=C(Nc1ccccc1)Nc1nc2ccccc2n1CCOc1ccc(Br)cc1 | 0.651 µM [rising, full curve, poor fit] | 
Cc1cc(C2C(C#N)=C(N)SC(N)=C2C#N)c(C)s1 | 29.1 µM [falling, single point] | 
CCS(=O)(=O)N1CCCC(C(=O)NCc2ccccc2Cl)C1 (configuration not stated) | 29.1 µM [rising, single point] | 
O=C(Nc1nc2ccc(F)cc2s1)c1ccccn1 | 2.82 µM [falling, full curve] | 3.55 µM [falling, full curve]
Cc1ccc(C(=O)NCCNC(=O)COc2ccccc2Cl)cn1 | 0.631 µM [falling, full curve, poor fit] | 
COC(=O)Cc1ccc(NC(=O)c2ccccc2Cl)cc1 | 11.2 µM [falling, single point] | 
COc1ccc(Nc2nc3cc(C)ccc3cc2C#N)cc1 | 0.282 µM [rising, full curve, poor fit] | 
O=C(O)/C=C/C(=O)Nc1ccc(Oc2ccccc2)cc1 | 5.62 µM [rising, full curve, poor fit] | 
CCc1cc(CNC(=O)c2ccc3nc(Cc4ccc(OC)c(OC)c4)oc3c2)on1 | 35.5 µM [falling, single point] | 
O=c1c2ccccc2c(C=Nc2ccccc2O)c(O)n1-c1nccs1 | 7.08 µM [falling, partial curve, poor fit] | 
O=C(CC1C(=O)CCCC1=O)c1ccccc1 | 35.5 µM [falling, single point] | 
Cc1ccc(NC(=O)C(=O)N2CCCC2)cc1Cl | 0.092 µM [falling, full curve, poor fit] | 
CCOC(=O)C1(CCOc2ccccc2)CCN(Cc2ccc(-n3cccn3)cc2)CC1 | 3.16 µM [rising, partial curve, poor fit] | 
COc1ccc(NS(=O)(=O)c2ccc3c(c2)CCC(=O)N3)cc1O | 3.66 µM [rising, single point] | 
CC(=O)c1cc2c(cc1NC(=O)CSc1nc3ccccc3[nH]1)OCO2 |  | 18.4 µM [rising, partial curve, poor fit]
O=C(Nc1cc2c(cc1C(=O)O)OCCCO2)c1ccc(F)cc1F | 7.08 µM [falling, full curve] | 
CCOC(=O)c1ccc(NC(=O)C2CCCN(S(=O)(=O)c3ccc(F)cc3)C2)cc1 (configuration not stated) | 8.2 µM [falling, single point] | 
CCOC(=O)C1C(=O)CC(C)(O)C(C(=O)OCC)C1c1ccc(Br)cc1 (configuration not stated) | 7.94 µM [falling, partial curve, poor fit] | 

Some of the entries above, reformatted:
Cc1cc2oc(=O)cc(CN3CCOCC3)c2cc1C(C)C
  AC50 [1]: 20 µM [rising, single point]
O=c1c2ccccc2c(C=Nc2ccccc2O)c(O)n1-c1nccs1
  AC50 [1]: 7.08 µM [falling, partial curve, poor fit]

Continuation:

Structure (SMILES) | AC50 [1] | AC50 [2]
O=C(NN=C1C2CC3CC1CC(Cl)(C3)C2)c1ccccn1 | 12.6 µM [falling, partial curve] | 
CC(=Nc1ccccc1)c1sc2ccccc2c1O | 0.0731 µM [rising, full curve, poor fit] | 
COC(=O)COc1ccc(S(=O)(=O)Nc2ccc(C(N)=O)cc2)cc1C | 29.1 µM [falling, single point] | 
CC(=O)c1ccc(OCC(O)CN2CCN(CCN3C(=O)c4cccc5cccc(c45)C3=O)CC2)cc1 (configuration not stated) | 16.4 µM [falling, partial curve, poor fit] | 
O=C1CN(C(=O)c2ccc(Br)o2)C(c2ccccc2)c2cc(Cl)ccc2N1 (configuration not stated) | 20 µM [falling, single point] | 
CCN1CCN(CCNC(=O)C2CCCN(Cc3nc(-c4cccc(Cl)c4)oc3C)C2)CC1 (configuration not stated) | 6.51 µM [rising, single point] | 
O=C(COC(=O)c1ccccc1C(=O)OCC(=O)NCCc1c[nH]c2ccccc12)NCCc1c[nH]c2ccccc12 | 18.4 µM [falling, partial curve, poor fit] | 
O=C(CSc1ccc(Cl)cc1)N/N=C/c1cccnc1 | 5.62 µM [rising, partial curve, poor fit] | 
O=C(/C=C/c1cn(CC(O)CN2CCCCCC2)c2ccccc12)c1cccs1 (configuration not stated) | 29.1 µM [falling, single point] | 
O=C(Nc1nccs1)c1cc(-c2ccccn2)nc2c(Cl)cccc12 | 2 µM [falling, partial curve, poor fit] | 
Cc1ccc(NC(=O)c2ccccc2-c2ccc(C(F)(F)F)cc2)cc1S(=O)(=O)N1CCOCC1 | 29.1 µM [falling, single point] | 
O=C(N/N=C/c1cccc2cccnc12)[C@H]1C[C@@H]1c1ccccc1 | 11.2 µM [falling, single point] | 
O=C(NC1(C(F)(F)F)NC(=O)N(C2CCCCC2)C1=O)C1CC1 (configuration not stated) | 0.631 µM [rising, full curve, poor fit] | 
O=C(CSc1nc(SCC(=O)NCc2ccccc2)n(-c2ccccc2)n1)NCc1ccccc1 | 6.51 µM [falling, partial curve] | 
COc1ccc2oc(-c3ccccc3)c(C(=O)O)c2c1 | 14.1 µM [falling, partial curve, poor fit] | 
Cc1ccc(CSc2nc3nc(C)cc(C)c3c(=O)[nH]2)cc1 | 35.5 µM [falling, single point] | 
CSc1nc(N)nc(SCC(=O)c2ccc(C)cc2)c1C#N | 6.31 µM [falling, partial curve] | 
CC(C)(NO)/C(=N\O)c1ccc(Cl)cc1 | 12.6 µM [rising, partial curve, poor fit] | 
COc1ccc(C2=NN(C(=O)CCC(=O)O)C(c3ccccc3OC)C2)cc1 (configuration not stated) | 14.1 µM [falling, partial curve] | 
Fc1ccccc1COc1ccccc1CNCc1ccncc1 | 28.2 µM [falling, single point] | 
